Assay results published in the supplement of paper PMC10849652.
Some of the results follow.

Chains of the proteins cited; added tags and fusions are not shown. Lines headed by an entry give the natural chain unless they say otherwise; changes in a name come on top.
UniProt Q9UK45: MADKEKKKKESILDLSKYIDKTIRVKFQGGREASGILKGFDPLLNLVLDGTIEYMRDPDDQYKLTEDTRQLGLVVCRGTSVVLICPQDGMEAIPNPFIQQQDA
UniProt O75608: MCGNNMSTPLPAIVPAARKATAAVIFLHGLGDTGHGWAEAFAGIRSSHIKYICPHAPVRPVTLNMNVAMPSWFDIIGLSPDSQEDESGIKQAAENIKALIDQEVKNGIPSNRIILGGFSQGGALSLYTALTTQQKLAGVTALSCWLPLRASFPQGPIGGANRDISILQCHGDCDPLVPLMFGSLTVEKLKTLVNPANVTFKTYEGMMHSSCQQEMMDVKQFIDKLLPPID
UniProt Q15691: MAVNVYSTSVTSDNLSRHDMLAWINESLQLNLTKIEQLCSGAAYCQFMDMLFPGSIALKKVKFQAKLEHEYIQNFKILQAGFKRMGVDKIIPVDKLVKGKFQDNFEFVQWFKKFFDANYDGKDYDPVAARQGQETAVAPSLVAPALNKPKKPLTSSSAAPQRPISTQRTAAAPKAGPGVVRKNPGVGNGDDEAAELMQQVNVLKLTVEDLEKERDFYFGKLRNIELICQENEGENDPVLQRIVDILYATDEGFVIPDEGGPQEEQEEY
UniProt Q9HD34: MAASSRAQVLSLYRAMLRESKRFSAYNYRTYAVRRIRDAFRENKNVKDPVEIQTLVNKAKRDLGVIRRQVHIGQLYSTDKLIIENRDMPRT
UniProt Q5VWZ2: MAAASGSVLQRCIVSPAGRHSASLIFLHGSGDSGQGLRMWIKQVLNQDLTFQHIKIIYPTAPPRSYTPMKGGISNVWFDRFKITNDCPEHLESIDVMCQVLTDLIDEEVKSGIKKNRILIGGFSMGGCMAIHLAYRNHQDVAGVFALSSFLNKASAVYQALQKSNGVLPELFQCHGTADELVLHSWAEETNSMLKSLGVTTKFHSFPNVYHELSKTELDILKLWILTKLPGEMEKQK
UniProt Q16644, whole entry, looked up: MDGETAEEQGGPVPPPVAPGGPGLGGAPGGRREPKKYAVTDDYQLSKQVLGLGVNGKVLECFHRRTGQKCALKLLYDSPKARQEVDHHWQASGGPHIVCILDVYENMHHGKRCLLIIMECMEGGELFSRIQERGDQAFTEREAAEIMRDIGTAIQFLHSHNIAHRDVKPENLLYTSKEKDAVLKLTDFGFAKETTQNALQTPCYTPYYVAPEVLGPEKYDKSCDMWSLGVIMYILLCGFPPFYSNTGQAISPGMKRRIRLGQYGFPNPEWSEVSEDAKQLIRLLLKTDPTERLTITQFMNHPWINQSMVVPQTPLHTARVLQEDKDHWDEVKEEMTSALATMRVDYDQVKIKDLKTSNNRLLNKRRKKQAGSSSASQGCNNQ
UniProt P49006: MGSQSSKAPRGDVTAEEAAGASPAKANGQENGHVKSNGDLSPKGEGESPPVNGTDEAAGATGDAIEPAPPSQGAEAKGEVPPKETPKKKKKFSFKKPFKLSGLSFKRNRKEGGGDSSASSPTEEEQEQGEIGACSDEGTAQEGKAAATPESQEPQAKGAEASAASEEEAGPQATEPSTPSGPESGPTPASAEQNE
UniProt Q8TDW0: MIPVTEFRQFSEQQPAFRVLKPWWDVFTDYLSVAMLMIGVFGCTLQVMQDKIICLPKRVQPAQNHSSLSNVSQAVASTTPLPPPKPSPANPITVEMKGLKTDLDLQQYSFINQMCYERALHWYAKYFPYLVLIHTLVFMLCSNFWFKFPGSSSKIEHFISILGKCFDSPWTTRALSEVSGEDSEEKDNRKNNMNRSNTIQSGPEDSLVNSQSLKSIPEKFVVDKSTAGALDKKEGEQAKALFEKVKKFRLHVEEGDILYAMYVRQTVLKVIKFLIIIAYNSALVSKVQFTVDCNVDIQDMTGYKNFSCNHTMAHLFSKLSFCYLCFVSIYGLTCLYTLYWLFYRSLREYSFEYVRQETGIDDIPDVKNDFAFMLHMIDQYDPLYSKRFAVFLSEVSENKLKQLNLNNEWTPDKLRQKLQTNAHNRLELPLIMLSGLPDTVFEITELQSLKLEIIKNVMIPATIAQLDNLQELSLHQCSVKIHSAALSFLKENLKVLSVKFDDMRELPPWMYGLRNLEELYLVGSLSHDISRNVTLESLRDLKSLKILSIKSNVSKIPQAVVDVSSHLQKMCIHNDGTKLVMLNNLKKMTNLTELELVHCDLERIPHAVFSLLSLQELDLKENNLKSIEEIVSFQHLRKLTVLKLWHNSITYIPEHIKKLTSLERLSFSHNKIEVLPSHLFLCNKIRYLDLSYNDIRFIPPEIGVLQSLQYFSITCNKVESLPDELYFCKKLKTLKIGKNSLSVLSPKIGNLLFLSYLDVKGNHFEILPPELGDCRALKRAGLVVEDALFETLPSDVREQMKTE
UniProt Q8N2S1: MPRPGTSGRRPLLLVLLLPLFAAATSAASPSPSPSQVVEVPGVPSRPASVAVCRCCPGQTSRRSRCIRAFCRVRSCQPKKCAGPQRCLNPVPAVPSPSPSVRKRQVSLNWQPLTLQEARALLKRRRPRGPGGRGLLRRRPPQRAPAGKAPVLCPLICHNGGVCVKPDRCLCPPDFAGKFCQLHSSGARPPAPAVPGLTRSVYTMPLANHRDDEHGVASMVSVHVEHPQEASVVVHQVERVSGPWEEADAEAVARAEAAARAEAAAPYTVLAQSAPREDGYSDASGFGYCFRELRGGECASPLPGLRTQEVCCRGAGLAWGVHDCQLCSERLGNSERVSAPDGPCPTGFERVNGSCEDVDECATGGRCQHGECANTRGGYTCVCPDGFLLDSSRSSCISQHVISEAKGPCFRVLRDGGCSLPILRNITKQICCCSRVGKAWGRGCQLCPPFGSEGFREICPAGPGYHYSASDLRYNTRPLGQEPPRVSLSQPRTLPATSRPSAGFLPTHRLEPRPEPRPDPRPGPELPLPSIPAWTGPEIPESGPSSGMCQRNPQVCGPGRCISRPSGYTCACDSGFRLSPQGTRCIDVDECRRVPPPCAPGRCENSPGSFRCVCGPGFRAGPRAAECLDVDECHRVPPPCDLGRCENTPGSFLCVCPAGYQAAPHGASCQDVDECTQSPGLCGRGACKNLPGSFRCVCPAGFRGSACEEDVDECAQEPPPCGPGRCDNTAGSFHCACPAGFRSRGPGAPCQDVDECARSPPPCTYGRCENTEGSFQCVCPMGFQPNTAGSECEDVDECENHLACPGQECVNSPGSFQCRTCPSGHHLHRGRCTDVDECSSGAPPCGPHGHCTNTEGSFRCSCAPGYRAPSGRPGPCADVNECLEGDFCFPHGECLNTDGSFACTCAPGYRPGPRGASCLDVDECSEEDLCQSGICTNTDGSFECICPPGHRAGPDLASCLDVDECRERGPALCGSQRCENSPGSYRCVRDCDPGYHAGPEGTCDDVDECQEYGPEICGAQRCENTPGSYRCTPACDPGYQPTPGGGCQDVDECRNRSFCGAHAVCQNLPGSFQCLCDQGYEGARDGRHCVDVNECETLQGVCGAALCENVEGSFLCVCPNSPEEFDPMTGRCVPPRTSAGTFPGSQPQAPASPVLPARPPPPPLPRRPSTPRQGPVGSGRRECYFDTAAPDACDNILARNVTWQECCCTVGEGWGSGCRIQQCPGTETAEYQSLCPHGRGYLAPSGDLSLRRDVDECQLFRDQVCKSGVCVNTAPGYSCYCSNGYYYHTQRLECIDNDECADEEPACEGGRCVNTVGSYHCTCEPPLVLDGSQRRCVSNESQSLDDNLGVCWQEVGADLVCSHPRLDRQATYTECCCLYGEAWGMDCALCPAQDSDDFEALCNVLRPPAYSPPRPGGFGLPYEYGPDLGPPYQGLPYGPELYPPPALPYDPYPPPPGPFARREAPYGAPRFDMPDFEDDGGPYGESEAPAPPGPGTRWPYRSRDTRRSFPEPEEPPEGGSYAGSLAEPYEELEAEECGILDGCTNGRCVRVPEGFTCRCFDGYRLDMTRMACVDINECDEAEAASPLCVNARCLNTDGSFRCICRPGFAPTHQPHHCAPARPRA
UniProt Q9UFC0: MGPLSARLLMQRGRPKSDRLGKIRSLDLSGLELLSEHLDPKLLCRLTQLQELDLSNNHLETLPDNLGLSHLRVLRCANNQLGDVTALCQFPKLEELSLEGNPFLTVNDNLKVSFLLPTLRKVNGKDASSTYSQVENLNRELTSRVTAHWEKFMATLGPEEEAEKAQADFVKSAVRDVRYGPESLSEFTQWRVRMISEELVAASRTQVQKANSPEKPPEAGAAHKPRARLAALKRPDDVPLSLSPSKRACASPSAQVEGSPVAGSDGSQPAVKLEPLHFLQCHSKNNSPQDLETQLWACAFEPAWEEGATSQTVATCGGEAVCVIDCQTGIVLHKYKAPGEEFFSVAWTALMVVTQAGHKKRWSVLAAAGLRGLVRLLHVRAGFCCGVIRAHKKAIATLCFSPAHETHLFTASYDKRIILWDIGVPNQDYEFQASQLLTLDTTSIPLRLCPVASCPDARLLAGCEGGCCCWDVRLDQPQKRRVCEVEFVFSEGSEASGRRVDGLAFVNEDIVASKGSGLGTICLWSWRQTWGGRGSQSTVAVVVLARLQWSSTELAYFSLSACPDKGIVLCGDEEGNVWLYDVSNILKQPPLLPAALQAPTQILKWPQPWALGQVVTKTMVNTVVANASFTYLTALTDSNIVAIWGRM
UniProt O95232: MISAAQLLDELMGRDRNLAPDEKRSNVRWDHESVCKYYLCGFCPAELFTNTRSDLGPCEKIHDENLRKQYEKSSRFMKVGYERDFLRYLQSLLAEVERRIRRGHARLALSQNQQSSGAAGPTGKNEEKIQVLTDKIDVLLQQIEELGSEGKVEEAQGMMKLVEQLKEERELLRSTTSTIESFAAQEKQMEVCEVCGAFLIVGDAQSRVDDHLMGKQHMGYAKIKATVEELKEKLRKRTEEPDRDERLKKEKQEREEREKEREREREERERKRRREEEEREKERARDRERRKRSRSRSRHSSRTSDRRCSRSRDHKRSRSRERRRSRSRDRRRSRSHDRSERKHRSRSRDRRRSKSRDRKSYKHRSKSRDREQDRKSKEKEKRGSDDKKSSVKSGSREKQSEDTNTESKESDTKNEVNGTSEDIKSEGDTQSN
UniProt O00754: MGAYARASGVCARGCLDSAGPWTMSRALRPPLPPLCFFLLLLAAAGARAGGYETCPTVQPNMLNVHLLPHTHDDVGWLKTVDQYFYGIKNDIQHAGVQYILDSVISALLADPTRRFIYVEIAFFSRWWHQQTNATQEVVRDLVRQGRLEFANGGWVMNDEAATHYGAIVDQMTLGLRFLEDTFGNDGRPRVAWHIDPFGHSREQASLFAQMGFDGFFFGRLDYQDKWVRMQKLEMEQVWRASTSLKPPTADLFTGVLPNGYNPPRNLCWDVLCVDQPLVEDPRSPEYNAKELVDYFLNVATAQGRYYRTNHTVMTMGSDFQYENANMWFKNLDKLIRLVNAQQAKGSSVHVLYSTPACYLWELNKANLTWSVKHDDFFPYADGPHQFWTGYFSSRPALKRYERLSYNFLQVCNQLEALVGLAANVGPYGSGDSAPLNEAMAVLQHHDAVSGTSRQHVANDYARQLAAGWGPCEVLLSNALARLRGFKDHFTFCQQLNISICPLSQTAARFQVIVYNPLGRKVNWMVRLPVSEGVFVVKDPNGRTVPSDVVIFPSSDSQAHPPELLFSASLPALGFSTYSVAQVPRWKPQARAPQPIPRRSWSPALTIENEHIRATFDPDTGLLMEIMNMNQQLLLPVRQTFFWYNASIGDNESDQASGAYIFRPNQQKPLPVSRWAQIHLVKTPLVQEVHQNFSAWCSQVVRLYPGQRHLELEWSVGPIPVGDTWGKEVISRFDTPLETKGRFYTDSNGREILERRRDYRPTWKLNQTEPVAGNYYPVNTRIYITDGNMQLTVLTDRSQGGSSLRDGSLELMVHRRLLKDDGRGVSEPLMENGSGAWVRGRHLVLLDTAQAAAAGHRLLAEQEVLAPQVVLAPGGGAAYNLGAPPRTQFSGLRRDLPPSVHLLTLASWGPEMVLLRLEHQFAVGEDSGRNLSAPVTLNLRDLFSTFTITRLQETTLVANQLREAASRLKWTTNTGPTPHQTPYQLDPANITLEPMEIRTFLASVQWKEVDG
UniProt O95777: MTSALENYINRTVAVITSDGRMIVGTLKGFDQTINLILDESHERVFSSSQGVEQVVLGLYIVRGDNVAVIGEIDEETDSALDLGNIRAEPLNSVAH
UniProt Q16539, whole entry, looked up: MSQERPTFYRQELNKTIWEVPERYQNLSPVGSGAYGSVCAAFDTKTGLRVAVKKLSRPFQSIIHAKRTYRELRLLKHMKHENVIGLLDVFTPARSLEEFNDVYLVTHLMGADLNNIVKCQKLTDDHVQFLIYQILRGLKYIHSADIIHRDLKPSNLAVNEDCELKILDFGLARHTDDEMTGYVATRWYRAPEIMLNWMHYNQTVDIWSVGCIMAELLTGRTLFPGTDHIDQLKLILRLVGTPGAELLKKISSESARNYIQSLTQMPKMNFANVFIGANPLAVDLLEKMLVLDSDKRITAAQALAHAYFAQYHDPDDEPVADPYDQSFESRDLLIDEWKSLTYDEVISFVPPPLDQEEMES

Tests used:
Experiment in all cases: log2 fold change, soluble protein after heating vs DMSO (PISA); higher = thermal stabilisation; K562 cells, 10 uM, 30 min; active = over 0.2 and 3.5 SD of the protein, either way, in both replicates (recomputed)
[1] = compound: CN1CCN(CCOc2cc(OC3CCOCC3)c3c(Nc4c(Cl)ccc5c4OCO5)ncnc3c2)CC1 [saracatinib]
Method in brief: (§1)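 Soluble protein was quantified by TMTpro 16plex LC-MS/MS after channel sums were equalised. It was obtained as the supernatant after 21,000xg for 90 min from pooled aliquots of K562 cells (2×10^6 cells/mL, 10 μM compound, 30 min) heated for 3 min across 48°C-58°C and extracted in PBS with 0.5% NP-40 at 4°C. Thermal stability values are relative to control samples and come from duplicates. They are given as log2 fold changes.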

[2] = compound: CN1CCN(c2nc(C3=C(c4c[nH]c5ccccc45)C(=O)NC3=O)c3ccccc3n2)CC1 [sotrastaurin]
Method in brief: as §1

[3] = compound: CN1CC[C@H](c2c(O)cc(O)c3c(=O)cc(-c4ccccc4Cl)oc23)[C@H](O)C1 [alvocidib]
Method in brief: as §1

[4] = compound: CN1CCc2c(c3ccccc3n2Cc2ccc(C(=O)NO)cc2)C1 [Tubastatin A]
Method in brief: as §1

[5] = compound: CNC(=O)C1=CC=CC=C1NC2=NC(=NC=C2Cl)NC3=C(C=C(C=C3)N4CCOCC4)OC
Method in brief: as §1

[6] = compound: CNC(=O)c1ccc(Nc2ncc(C(F)(F)F)c(NCc3nccnc3N(C)S(C)(=O)=O)n2)cc1 [defactinib]
Method in brief: as §1

[7] = compound: CNCc1ccc(-c2[nH]c3cc(F)cc4c3c2CCNC4=O)cc1 [rucaparib]
Method in brief: as §1

[8] = compound: CNc1nc(-c2ccc3c(N)n[nH]c3c2)cc(N2C[C@@H](C(=O)NC3CCCCC3)CC[C@H]2C)n1
Method in brief: as §1

[9] = compound: COC(=O)N[C@@H](C)CNc1nccc(-c2cn(C(C)C)nc2-c2cc(Cl)cc(NS(C)(=O)=O)c2F)n1 [encorafenib]
Method in brief: as §1

[10] = compound: COC(=O)[C@H](CCSC)NC(=O)C1=C(C=C(C=C1)NC[C@H](CS)N)C2=CC=CC=C2
Method in brief: as §1

Measured: log2 fold change

LSM7 (UniProt Q9UK45)
inactive: [1] 0.031 | [2] 0.043 | [3] 0.02 | [4] -0.063 | [5] -0.02 | [6] 0.053 | [7] -0.06 | [8] 0.04 | [9] 0.004 | [10] 0.01

MACF1 (UniProt Q9UPN3)
inactive: [1] -0.096 | [2] -0.169 | [3] -0.006 | [4] 0.066 | [5] 0.056 | [6] 0.005 | [7] 0.087 | [8] 0.077 | [9] 0.076 | [10] -0.024

LYPLA1 (UniProt O75608)
inactive: [1] 0.012 | [2] 0.012 | [3] -0.003 | [4] 0.006 | [5] 0.009 | [6] -0.015 | [7] -0.051 | [8] -0.005 | [9] -0.022 | [10] 0.031

MAPRE1 (UniProt Q15691)
inactive: [1] -0.011 | [2] 0.013 | [3] -0.074 | [4] -0.021 | [5] 0.031 | [6] -0.064 | [7] -0.046 | [8] 0.005 | [9] 0.013 | [10] 0.018

LYRM4 (UniProt Q9HD34)
inactive: [1] 0.037 | [2] 0.041 | [3] -0.002 | [4] -0.006 | [5] 0.01 | [6] -0.043 | [7] -0.003 | [8] -0.003 | [9] -0.001 | [10] 0.015

LYPLAL1 (UniProt Q5VWZ2)
inactive: [1] 0.012 | [2] -0.007 | [3] -0.126 | [4] 0.026 | [5] 0.017 | [6] -0.044 | [7] -0.101 | [8] -0.047 | [9] 0.009 | [10] -0.017

MAPKAPK3 (UniProt Q16644)
inactive: [1] 0.134 | [2] -0.117 | [4] -0.077 | [5] 0.117 | [6] -0.051 | [7] -0.023 | [8] 0.011 | [9] 0.106 | [10] -0.01

LSM12 isoform 2 (UniProt Q3MHD2)
inactive: [1] 0.163 | [2] -0.004 | [3] -0.055 | [4] 0.053 | [5] -0.016 | [6] 0.035 | [7] 0.16 | [8] -0.025 | [9] -0.033 | [10] 0.066

MARCKSL1 (UniProt P49006)
inactive: [1] 0.02 | [4] -0.043 | [5] 0.013 | [6] 0.007 | [7] -0.035 | [8] 0.063 | [9] -0.04 | [10] -0.008
active: [2] 0.315

LSS (UniProt P48449)
active: [7] 0.595
inactive: [1] 0.172 | [2] 0.016 | [4] 0.103 | [5] -0.091 | [6] -0.015 | [8] -0.001 | [9] 0.118 | [10] 0.074

LRRC8C (UniProt Q8TDW0)
inactive: [1] 0.102 | [2] 0.016 | [3] -0.001 | [5] 0.009 | [7] 0.002 | [8] -0.073 | [9] 0.07

MARK2 (UniProt E9PC69)
active: [5] -1.12
inactive: [1] -0.103 | [2] -0.555 | [4] 0.278 | [6] -0.07 | [7] 0.187 | [8] 0.037 | [9] 0.144 | [10] -0.028

LTBP4 (UniProt Q8N2S1)
inactive: [1] 0.064 | [2] 0.08 | [3] 0.063 | [4] 0.113 | [5] 0.112 | [7] 0.046 | [8] -0.034 | [9] -0.004

MAP2K2 (UniProt P36507)
inactive: [1] 0.012 | [2] -0.037 | [4] 0.01 | [5] -0.138 | [6] -0.056 | [7] -0.039 | [8] -0.021 | [9] -0.074 | [10] 0.001

MADD isoform 2 (UniProt Q8WXG6)
inactive: [1] -0.09 | [2] -0.178 | [3] 0.019 | [4] 0.068 | [5] -0.035 | [7] 0.274 | [8] 0.071 | [9] 0.078

MAP2K1 (UniProt Q02750)
inactive: [1] 0.02 | [2] 0.028 | [4] -0.018 | [5] -0.053 | [6] -0.011 | [7] -0.049 | [8] -0.005 | [9] 0.005 | [10] 0.009

MAP3K4 isoform 2 (UniProt Q9Y6R4)
inactive: [1] 0.077 | [2] 0.034 | [4] -0.038 | [5] 0.153 | [6] -0.008 | [7] 0.006 | [8] -0.002 | [9] -0.023 | [10] 0.029

LRWD1 (UniProt Q9UFC0)
inactive: [1] -0.065 | [2] -0.303 | [3] -0.178 | [4] 0.143 | [5] -0.013 | [6] -0.366 | [7] 0.049 | [8] 0.092 | [9] 0.145 | [10] -0.255

2 entries drawn at random from the list so far, as already listed:
MAP2K2 (UniProt P36507)
inactive: [1] 0.012 | [2] -0.037 | [4] 0.01 | [5] -0.138 | [6] -0.056 | [7] -0.039 | [8] -0.021 | [9] -0.074 | [10] 0.001

MADD isoform 2 (UniProt Q8WXG6)
inactive: [1] -0.09 | [2] -0.178 | [3] 0.019 | [4] 0.068 | [5] -0.035 | [7] 0.274 | [8] 0.071 | [9] 0.078

Continuation:

MAPKAPK2 (UniProt P49137)
inactive: [1] 0.077 | [2] -0.035 | [4] -0.006 | [5] -0.01 | [6] -0.013 | [7] 0 | [8] -0.022 | [9] 0.139 | [10] 0.023

LUM (UniProt P51884)
inactive: [1] 0.081 | [2] 0.29 | [4] -0.145 | [5] 0.085 | [6] -0.071 | [7] -0.167 | [8] 0.014 | [9] -0.011 | [10] 0.283

LUC7L3 (UniProt O95232)
active: [5] -0.314
inactive: [1] -0.003 | [2] 0.013 | [4] -0.007 | [6] -0.113 | [7] -0.008 | [8] -0.048 | [9] 0.028 | [10] -0.003

MAP7D1 (UniProt Q3KQU3)
inactive: [1] -0.153 | [2] -0.012 | [3] 0.279 | [4] 0.164 | [5] -0.022 | [6] 0.281 | [7] 0.328 | [8] 0.081 | [9] 0.135 | [10] -0.112

MAN2B1 (UniProt O00754)
inactive: [1] 0.031 | [2] 0.042 | [3] 0.053 | [4] 0.009 | [5] -0.005 | [6] -0.03 | [7] 0.122 | [8] -0.078 | [9] -0.005 | [10] 0.03

MAP3K20 (UniProt Q9NYL2)
inactive: [1] -0.106 | [2] 0.055 | [4] 0.004 | [5] 0.054 | [6] -0.018 | [7] 0.002 | [8] 0.01 | [9] 0.02 | [10] -0.034

LSM8 (UniProt O95777)
inactive: [1] 0.013 | [2] 0.037 | [3] 0.017 | [4] -0.033 | [5] -0.018 | [6] -0.004 | [7] -0.063 | [8] -0.034 | [9] 0.005 | [10] 0.014

MAGEC2 (UniProt Q9UBF1)
inactive: [1] 0.092 | [2] -0.068 | [4] -0.013 | [5] 0.015 | [6] -0.056 | [7] -0.021 | [8] -0.082 | [9] 0.079 | [10] 0.003

MAPK14 isoform 2 (UniProt Q16539)
inactive: [1] 0.486 | [2] -0.085 | [4] 0.145 | [5] 0.559 | [6] -0.25 | [7] 0.127 | [8] -0.029 | [10] -0.014
active: [9] 0.91

MAGOHB (UniProt Q96A72)
inactive: [1] -0.047 | [2] -0.009 | [4] 0.014 | [5] -0.007 | [6] -0.003 | [7] -0.021 | [8] 0.022 | [9] 0.019 | [10] -0.071

MAPK14 (UniProt Q16539)
inactive: [1] 0.261 | [2] 0.001 | [4] 0.074 | [5] 0.546 | [6] -0.137 | [7] -0.02 | [8] -0.03 | [9] 0.684 | [10] -0.055
